Assay results taken from PubChem BioAssay AID248 (DTP/NCI, 2004).
The list shows only some results of the screen, not a fair sample: it gathers tests that were run many times, whatever their T/C, doses with no T/C, and many T/C values between a quarter and a half above the control. Further doses and runs are listed elsewhere. T/C is the treated group as % of the vehicle group. Some doses have a count of surviving animals in place of a T/C: the source files T/C as zero there, which appears to mark a toxic dose or a test without result, not a measured value. Some survivor counts are full or nearly so, which does not show that the dose was tolerated: survival well below the control is almost never listed, so the zero probably covers shortened survival too. Counts of survivors are from the toxicity check (mostly the fifth day) where no day follows; animals may have died later. Schedule codes are those of the source, read here as Q, the interval in days (D) or hours (H), X, the number of doses. Some molecules as drawn cover several salts, stereoisomers or complexes of the source; a dose is that of the sample tested. Some schedules carry Z or #; the key to these is not given. Where survival is the endpoint, the PubChem record calls one and a half times the control and up active, and a quarter to a half above the control has no call in these data; cut-offs in other NCI protocols can differ. Some T/C values carry the count of animals alive at the toxicity check (mostly the fifth day); without a count, all were alive then. Some doses were run more than once; the values are given in rising order.

Test system: L1210 leukemia ip in BDF1 mice, survival T/C
Assay: NCI In Vivo Anticancer Drug Screen. Data for tumor model L1210 Leukemia (intraperitoneal) in B6D2F1 (BDF1) mice
Conditions: T/C endpoint: mean survival time, higher T/C = longer survival
[1] = dose: 400.0 mg/kg/injection, schedule: Q04DX003 (ip), vehicle: saline
[2] = dose: 400.0 mg/kg/injection, schedule: Q04DX003 (ip), vehicle: Klucel (hydroxypropylcellulose) (HPC)
[3] = dose: 400.0 mg/kg/injection, schedule: Q01DX001 (ip), vehicle: saline
[4] = dose: 400.0 mg/kg/injection, schedule: Q01DX009 (ip), vehicle: saline with Tween-80

## CCOCCN1CCN(CCCN2c3ccccc3Sc3ccc(C(F)(F)F)cc32)CC1
dose: 3.12 mg/kg/injection, schedule: Q01DX009 (ip), vehicle: water
  survivor count: 6 of 6
dose: 6.25 mg/kg/injection, schedule: Q01DX009 (ip), vehicle: water
  survivor count: 5 of 6
dose: 12.5 mg/kg/injection, schedule: Q01DX009 (ip), vehicle: water
  survivor count: 6 of 6
dose: 25.0 mg/kg/injection, schedule: Q01DX009 (ip), vehicle: water
  survivor count: 5 of 6
dose: 35.0 mg/kg/injection, schedule: Q04DX003 (ip), vehicle: other
  T/C: 136 % of control
dose: 50.0 mg/kg/injection, schedule: Q01DX009 (ip), vehicle: water
  survivor count: 3 of 6
dose: 50.0 mg/kg/injection, schedule: Q04DX003 (ip), vehicle: water
  T/C: 127 % of control [5 of 6 alive]
dose: 200.0 mg/kg/injection, schedule: Q04DX003 (ip), vehicle: water
  survivor count: 1 of 6
dose: 400.0 mg/kg/injection, schedule: Q04DX003 (ip), vehicle: water
  survivor count: 0 of 6

## CCNCCNC
dose: 200.0 mg/kg/injection, schedule: Q01DX009 (ip), vehicle: saline
  survivor count: 5 of 6
[1]
  survivor count: 1 of 6

## [Cl][Sn]([Cl])([c]1ccccc1)[c]1ccccc1.c1ccc(-c2nnc(-c3ccccn3)nc2-c2ccccc2)cc1
dose: 25.0 mg/kg/injection, schedule: Q04DX003 (ip), vehicle: saline with Tween-80
  survivor count: 1 of 6
dose: 100.0 mg/kg/injection, schedule: Q04DX003 (ip), vehicle: saline with Tween-80
  survivor count: 0 of 4
dose: 200.0 mg/kg/injection, schedule: Q04DX003 (ip), vehicle: saline with Tween-80
  survivor count: 0 of 4
dose: 400.0 mg/kg/injection, schedule: Q04DX003 (ip), vehicle: saline with Tween-80
  survivor count: 0 of 4

## O=c1[nH]c(Nc2ccccc2)c([N+](=O)[O-])c(=O)[nH]1
dose: 150.0 mg/kg/injection, schedule: Q01DX001 (ip), vehicle: Klucel (hydroxypropylcellulose) (HPC)
  survivor count: 0 of 6
dose: 300.0 mg/kg/injection, schedule: Q01DX001 (ip), vehicle: Klucel (hydroxypropylcellulose) (HPC)
  survivor count: 2 of 6

## CC[N+](CC)(Cc1cc([N+](=O)[O-])ccc1OC)Cc1cc([N+](=O)[O-])ccc1OC
dose: 75.0 mg/kg/injection, schedule: Q01DX001 (ip), vehicle: carboxymethylcellulose (CMC)
  survivor count: 1 of 6
dose: 150.0 mg/kg/injection, schedule: Q01DX001 (ip), vehicle: carboxymethylcellulose (CMC)
  survivor count: 0 of 6
dose: 300.0 mg/kg/injection, schedule: Q01DX001 (ip), vehicle: carboxymethylcellulose (CMC)
  survivor count: 0 of 6

## COc1ccc(C(=O)c2cccs2)cc1
[2]
  survivor count: 6 of 6

## CN(C)/C(N)=N/N
dose: 125.0 mg/kg/injection, schedule: Q01DX Z (oral), vehicle: methylcellulose (MC)
  survivor count: 3 of 6
dose: 250.0 mg/kg/injection, schedule: Q01DX Z (oral), vehicle: methylcellulose (MC)
  survivor count: 3 of 6
dose: 500.0 mg/kg/injection, schedule: Q01DX Z (oral), vehicle: methylcellulose (MC)
  survivor count: 2 of 6
dose: 1000.0 mg/kg/injection, schedule: Q01DX Z (oral), vehicle: methylcellulose (MC)
  survivor count: 2 of 6

## CN1CCC=C(C(=O)N(c2ccccc2)c2ccccc2)C1
[1]
  survivor count: 2 of 6

## CN=C(c1ccc(NC(=O)c2ccc(C(=O)Nc3ccc(C(=NC)N(C)C4CCCCC4)cc3)cc2)cc1)N(C)C1CCCCC1
dose: 1.88 mg/kg/injection, schedule: Q01DX Z (ip), vehicle: saline
  survivor count: 0 of 6
dose: 3.75 mg/kg/injection, schedule: Q01DX Z (ip), vehicle: saline
  survivor count: 1 of 6
dose: 7.5 mg/kg/injection, schedule: Q01DX Z (ip), vehicle: saline
  survivor count: 0 of 6
dose: 15.0 mg/kg/injection, schedule: Q01DX Z (ip), vehicle: saline
  survivor count: 0 of 6
dose: 30.0 mg/kg/injection, schedule: Q01DX Z (ip), vehicle: saline
  survivor count: 0 of 6
dose: 60.0 mg/kg/injection, schedule: Q01DX Z (ip), vehicle: saline
  survivor count: 0 of 6
dose: 120.0 mg/kg/injection, schedule: Q01DX Z (ip), vehicle: saline
  survivor count: 0 of 6

## O=C1c2cccc3c([N+](=O)[O-])ccc(c23)C(=O)N1Cc1cccnc1
dose: 400.0 mg/kg/injection, schedule: Q04DX002 (ip), vehicle: Klucel (hydroxypropylcellulose) (HPC)
  survivor count: 1 of 3

## O=C(CN(Cc1ccccc1)Cc1ccccc1)c1ccccc1
dose: 200.0 mg/kg/injection, schedule: Q04DX003 (ip), vehicle: DMSO
  survivor count: 1 of 6
dose: 400.0 mg/kg/injection, schedule: Q04DX003 (ip), vehicle: DMSO
  survivor count: 1 of 6

## O=C(NO)c1ccccc1
dose: 200.0 mg/kg/injection, schedule: Q03HX032 (ip), vehicle: saline
  survivor count: 7 of 10
dose: 266.0 mg/kg/injection, schedule: Q01DX009 (ip), vehicle: saline
  T/C: 128 % of control [5 of 6 alive]
dose: 300.0 mg/kg/injection, schedule: Q03HX032 (ip), vehicle: saline
  survivor count: 3 of 10
[3]
  survivor count: 1 of 3
dose: 400.0 mg/kg/injection, schedule: Q01DX009 (ip), vehicle: Klucel (hydroxypropylcellulose) (HPC)
  T/C: 128 % of control [7 of 8 alive]
dose: 400.0 mg/kg/injection, schedule: Q01DX009 (ip), vehicle: acetone
  T/C: 147 % of control
[4]
  T/C: 147 % of control [4 of 6 alive]
  survivor count: 3 of 6
dose: 400.0 mg/kg/injection, schedule: Q01DX009 (ip), vehicle: saline
  T/C: 136 [4 of 6 alive] and 139 % of control
[1]
  T/C: 125 % of control
dose: 450.0 mg/kg/injection, schedule: Q03HX032 (ip), vehicle: saline
  survivor count: 0 of 10
dose: 600.0 mg/kg/injection, schedule: Q01DX009 (ip), vehicle: saline with Tween-80
  T/C: 129 % of control
dose: 670.0 mg/kg/injection, schedule: Q01DX015 (ip), vehicle: saline
  T/C: 130 % of control [9 of 10 alive]
dose: 800.0 mg/kg/injection, schedule: Q01DX009 (ip), vehicle: Klucel (hydroxypropylcellulose) (HPC)
  survivor count: 1 of 8

## C=C1C(=O)OC2CC3(C)C(O)CCC(=C)C3C(OC(C)=O)C12 (stereo not given) (tested in a mixture with another compound)
dose: 200.0 mg/kg/injection, schedule: Q01DX001 (ip), vehicle: saline
  survivor count: 2 of 6
[3]
  survivor count: 0 of 6

## O=S(=O)(O)c1ccc2c(O)cc(S(=O)(=O)O)cc2c1
dose: 200.0 mg/kg/injection, schedule: Q04DX003 (ip), vehicle: saline
  survivor count: 6 of 6

## CCCCCCCCCCCCCCCCS(=O)(=O)c1ccc(S(=O)(=O)CS(C)(=O)=O)cc1[N+](=O)[O-]
dose: 400.0 mg/kg/injection, schedule: Q01DX001 (ip), vehicle: other
  survivor count: 6 of 6

## O=C1NC(=O)C(=O)C(=O)N1
[3]
  survivor count: 3 of 6

## COC(=O)[C@H]1[C@H]2C[C@@H]3c4[nH]c5cc(OC)ccc5c4CCN3C[C@H]2C[C@@H](OC(=O)/C=C/c2cc(OC)c(OC)c(OC)c2)[C@@H]1OC
dose: 5.0 mg/kg/injection, schedule: Q01DX009 (ip), vehicle: saline with Tween-80
  survivor count: 6 of 6
dose: 10.0 mg/kg/injection, schedule: Q01DX009 (ip), vehicle: saline with Tween-80
  survivor count: 6 of 6
dose: 20.0 mg/kg/injection, schedule: Q01DX009 (ip), vehicle: saline with Tween-80
  survivor count: 6 of 6
dose: 100.0 mg/kg/injection, schedule: Q04DX003 (ip), vehicle: Klucel (hydroxypropylcellulose) (HPC)
  survivor count: 4 of 4
dose: 200.0 mg/kg/injection, schedule: Q04DX003 (ip), vehicle: Klucel (hydroxypropylcellulose) (HPC)
  survivor count: 2 of 4
[2]
  survivor count: 1 of 4

## CC(O)CNC1CCCCC1 (stereo not given)
dose: 300.0 mg/kg/injection, schedule: Q01DX001 (ip), vehicle: saline
  survivor count: 3 of 6

## CCCC[CH2][Pb]([CH2]CCCC)([CH2]CCCC)[O]C(C)=O
dose: 100.0 mg/kg/injection, schedule: Q01DX001 (ip), vehicle: saline with Tween-80
  survivor count: 2 of 6
dose: 200.0 mg/kg/injection, schedule: Q01DX001 (ip), vehicle: saline with Tween-80
  survivor count: 0 of 6
dose: 400.0 mg/kg/injection, schedule: Q01DX001 (ip), vehicle: saline with Tween-80
  survivor count: 0 of 6
